Experimental data reported in paper doi:10.1101/2024.11.12.621593.
No constants are given. Whether binding was seen depends on the method and setting. In cells and extracts the contact can be indirect. Some binding calls cover weakened binding; strength is not graded here.

Protein sequences, listed by entry. Tags and fused reporters are not part of them. Lines headed by an entry give the natural chain unless they say otherwise; changes in a name come on top.
UniProt Q92547: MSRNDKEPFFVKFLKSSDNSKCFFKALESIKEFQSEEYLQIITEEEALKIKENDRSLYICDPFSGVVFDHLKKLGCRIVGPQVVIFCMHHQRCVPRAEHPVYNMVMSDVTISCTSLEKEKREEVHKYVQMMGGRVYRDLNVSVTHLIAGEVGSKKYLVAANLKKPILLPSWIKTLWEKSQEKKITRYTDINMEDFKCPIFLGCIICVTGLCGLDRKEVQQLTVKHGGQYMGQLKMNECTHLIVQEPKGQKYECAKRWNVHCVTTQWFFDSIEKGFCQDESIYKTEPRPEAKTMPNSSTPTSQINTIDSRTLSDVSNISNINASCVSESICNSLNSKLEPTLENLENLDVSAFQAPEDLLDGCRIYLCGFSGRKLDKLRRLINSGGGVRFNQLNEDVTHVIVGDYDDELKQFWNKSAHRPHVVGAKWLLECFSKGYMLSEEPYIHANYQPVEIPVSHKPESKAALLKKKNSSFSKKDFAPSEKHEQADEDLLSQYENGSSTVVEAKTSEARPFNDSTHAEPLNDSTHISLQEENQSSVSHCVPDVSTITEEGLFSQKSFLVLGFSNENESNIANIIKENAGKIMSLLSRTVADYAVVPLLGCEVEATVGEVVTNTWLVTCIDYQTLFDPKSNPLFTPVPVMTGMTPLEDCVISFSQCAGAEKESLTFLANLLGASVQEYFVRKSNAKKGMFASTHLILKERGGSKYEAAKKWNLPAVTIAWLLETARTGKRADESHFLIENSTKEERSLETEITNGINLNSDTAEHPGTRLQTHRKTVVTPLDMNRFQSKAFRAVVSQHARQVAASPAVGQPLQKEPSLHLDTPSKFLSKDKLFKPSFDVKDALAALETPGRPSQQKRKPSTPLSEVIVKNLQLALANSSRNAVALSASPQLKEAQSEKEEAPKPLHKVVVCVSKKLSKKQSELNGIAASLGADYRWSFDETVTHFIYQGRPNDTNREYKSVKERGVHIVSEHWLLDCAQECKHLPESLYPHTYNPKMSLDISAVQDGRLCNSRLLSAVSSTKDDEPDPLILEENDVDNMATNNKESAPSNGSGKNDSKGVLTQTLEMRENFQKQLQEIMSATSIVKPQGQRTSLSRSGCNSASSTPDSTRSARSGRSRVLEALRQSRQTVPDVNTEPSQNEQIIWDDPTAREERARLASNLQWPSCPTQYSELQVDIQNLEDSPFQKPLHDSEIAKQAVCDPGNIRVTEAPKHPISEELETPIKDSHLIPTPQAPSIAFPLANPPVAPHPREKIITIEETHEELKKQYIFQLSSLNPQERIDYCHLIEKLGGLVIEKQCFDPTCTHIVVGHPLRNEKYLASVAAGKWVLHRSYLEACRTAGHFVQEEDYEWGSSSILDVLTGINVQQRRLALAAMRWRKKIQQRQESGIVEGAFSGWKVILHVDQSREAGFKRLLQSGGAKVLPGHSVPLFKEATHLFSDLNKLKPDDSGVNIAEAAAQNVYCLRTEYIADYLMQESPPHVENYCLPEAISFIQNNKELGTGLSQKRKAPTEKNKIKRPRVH
UniProt Q8IY92: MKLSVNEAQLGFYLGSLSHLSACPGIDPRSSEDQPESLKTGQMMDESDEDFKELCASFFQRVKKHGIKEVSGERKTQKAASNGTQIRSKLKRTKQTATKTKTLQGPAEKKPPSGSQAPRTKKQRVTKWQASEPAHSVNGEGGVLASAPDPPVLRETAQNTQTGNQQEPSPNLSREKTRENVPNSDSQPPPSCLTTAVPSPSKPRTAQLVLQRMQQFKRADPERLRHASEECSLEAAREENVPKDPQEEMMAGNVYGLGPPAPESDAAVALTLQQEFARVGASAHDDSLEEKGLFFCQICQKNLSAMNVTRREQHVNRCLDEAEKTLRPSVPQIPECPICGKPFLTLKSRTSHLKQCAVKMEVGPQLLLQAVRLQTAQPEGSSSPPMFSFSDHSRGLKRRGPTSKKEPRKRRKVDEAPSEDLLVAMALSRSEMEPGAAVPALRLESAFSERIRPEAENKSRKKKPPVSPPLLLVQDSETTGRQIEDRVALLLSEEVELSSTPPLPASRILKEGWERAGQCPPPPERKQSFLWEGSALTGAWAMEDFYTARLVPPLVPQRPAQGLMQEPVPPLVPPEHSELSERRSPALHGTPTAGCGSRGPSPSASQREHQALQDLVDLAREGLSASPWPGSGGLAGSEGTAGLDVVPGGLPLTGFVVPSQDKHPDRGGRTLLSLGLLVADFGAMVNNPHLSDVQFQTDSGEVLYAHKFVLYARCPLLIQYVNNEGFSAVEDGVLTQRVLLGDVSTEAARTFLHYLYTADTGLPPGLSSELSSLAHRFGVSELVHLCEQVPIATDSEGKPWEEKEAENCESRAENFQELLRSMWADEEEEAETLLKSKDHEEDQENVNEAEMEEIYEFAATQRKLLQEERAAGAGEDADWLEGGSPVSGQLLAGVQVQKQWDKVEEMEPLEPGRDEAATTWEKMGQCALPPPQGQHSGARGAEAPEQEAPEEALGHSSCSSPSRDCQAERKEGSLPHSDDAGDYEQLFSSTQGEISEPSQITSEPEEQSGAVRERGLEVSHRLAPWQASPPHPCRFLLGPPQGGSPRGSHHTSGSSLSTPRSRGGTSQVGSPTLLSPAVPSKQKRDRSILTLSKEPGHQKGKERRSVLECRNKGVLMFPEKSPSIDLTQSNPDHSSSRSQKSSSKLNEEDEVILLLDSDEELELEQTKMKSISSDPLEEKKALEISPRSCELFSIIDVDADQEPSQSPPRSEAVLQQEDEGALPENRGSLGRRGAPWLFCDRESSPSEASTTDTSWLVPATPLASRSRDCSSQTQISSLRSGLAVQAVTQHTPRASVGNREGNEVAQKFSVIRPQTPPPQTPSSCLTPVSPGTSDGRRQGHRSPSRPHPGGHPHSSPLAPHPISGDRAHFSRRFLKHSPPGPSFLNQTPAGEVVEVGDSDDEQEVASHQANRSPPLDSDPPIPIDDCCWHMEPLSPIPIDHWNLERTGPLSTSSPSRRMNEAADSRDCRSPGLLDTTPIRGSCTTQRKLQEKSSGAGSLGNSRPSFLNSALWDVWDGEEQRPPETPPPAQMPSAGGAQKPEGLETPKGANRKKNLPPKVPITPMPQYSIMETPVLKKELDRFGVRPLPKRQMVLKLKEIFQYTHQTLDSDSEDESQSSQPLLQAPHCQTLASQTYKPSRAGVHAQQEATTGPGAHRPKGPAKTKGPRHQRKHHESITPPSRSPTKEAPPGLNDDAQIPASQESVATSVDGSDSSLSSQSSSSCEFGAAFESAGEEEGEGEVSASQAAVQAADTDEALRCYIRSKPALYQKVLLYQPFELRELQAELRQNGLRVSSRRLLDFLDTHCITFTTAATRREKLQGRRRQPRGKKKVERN

B1: TOP3a (endogenous) (protein, UniProt Q13472 1-1001)
chain: MIFPVARYALRWLRRPEDRAFSRAAMEMALRGVRKVLCVAEKNDAAKGIADLLSNGRMRRREGLSKFNKIYEFDYHLYGQNVTMVMTSVSGHLLAHDFQMQFRKWQSCNPLVLFEAEIEKYCPENFVDIKKTLERETRQCQALVIWTDCDREGENIGFEIIHVCKAVKPNLQVLRARFSEITPHAVRTACENLTEPDQRVSDAVDVRQELDLRIGAAFTRFQTLRLQRIFPEVLAEQLISYGSCQFPTLGFVVERFKAIQAFVPEIFHRIKVTHDHKDGIVEFNWKRHRLFNHTACLVLYQLCVEDPMATVVEVRSKPKSKWRPQALDTVELEKLASRKLRINAKETMRIAEKLYTQGYISYPRTETNIFPRDLNLTVLVEQQTPDPRWGAFAQSILERGGPTPRNGNKSDQAHPPIHPTKYTNNLQGDEQRLYEFIVRHFLACCSQDAQGQETTVEIDIAQERFVAHGLMILARNYLDVYPYDHWSDKILPVYEQGSHFQPSTVEMVDGETSPPKLLTEADLIALMEKHGIGTDATHAEHIETIKARMYVGLTPDKRFLPGHLGMGLVEGYDSMGYEMSKPDLRAELEADLKLICDGKKDKFVVLRQQVQKYKQVFIEAVAKAKKLDEALAQYFGNGTELAQQEDIYPAMPEPIRKCPQCNKDMVLKTKKNGGFYLSCMGFPECRSAVWLPDSVLEASRDSSVCPVCQPHPVYRLKLKFKRGSLPPTMPLEFVCCIGGCDDTLREILDLRFSGGPPRASQPSGRLQANQSLNRMDNSQHPQPADSRQTGSSKALAQTLPPPTAAGESNSVTCNCGQEAVLLTVRKEGPNRGRQFFKCNGGSCNFFLWADSPNPGAGGPPALAYRPLGASLGCPPGPGIHLGGFGNPGDGSGSGTSCLCSQPSVTRTVQKDGPNKGRQFHTCAKPREQQCGFFQWVDENTAPGTSGAPSWTGDRGRTLESEARSKRPRASSSDMGSTAKKPRKCSLCHQPGHTRPFCPQNR
B2: ERCC1 (endogenous) (protein, UniProt P07992 1-297)
chain: MDPGKDKEGVPQPSGPPARKKFVIPLDEDEVPPGVAKPLFRSTQSLPTVDTSAQAAPQTYAEYAISQPLEGAGATCPTGSEPLAGETPNQALKPGAKSNSIIVSPRQRGNPVLKFVRNVPWEFGDVIPDYVLGQSTCALFLSLRYHNLHPDYIHGRLQSLGKNFALRVLLVQVDVKDPQQALKELAKMCILADCTLILAWSPEEAGRYLETYKAYEQKPADLLMEKLEQDFVSRVTECLTTVKSVNKTDSQTLLTTFGSLEQLIAASREDLALCPGLGPQKARRLFDVLHEPFLKVP
B3: MUS81 (endogenous) (protein, UniProt Q96NY9 1-551)
chain: MAAPVRLGRKRPLPACPNPLFVRWLTEWRDEATRSRRRTRFVFQKALRSLRRYPLPLRSGKEAKILQHFGDGLCRMLDERLQRHRTSGGDHAPDSPSGENSPAPQGRLAEVQDSSMPVPAQPKAGGSGSYWPARHSGARVILLVLYREHLNPNGHHFLTKEELLQRCAQKSPRVAPGSARPWPALRSLLHRNLVLRTHQPARYSLTPEGLELAQKLAESEGLSLLNVGIGPKEPPGEETAVPGAASAELASEAGVQQQPLELRPGEYRVLLCVDIGETRGGGHRPELLRELQRLHVTHTVRKLHVGDFVWVAQETNPRDPANPGELVLDHIVERKRLDDLCSSIIDGRFREQKFRLKRCGLERRVYLVEEHGSVHNLSLPESTLLQAVTNTQVIDGFFVKRTADIKESAAYLALLTRGLQRLYQGHTLRSRPWGTPGNPESGAMTSPNPLCSLLTFSDFNAGAIKNKAQSVREVFARQLMQVRGVSGEKAAALVDRYSTPASLLAAYDACATPKEQETLLSTIKCGRLQRNLGPALSRTLSQLYCSYGPLT

Assays:
Assay in all cases: co-IP
eGFP-TOPBP1 WT (human) = eGFP-TOPBP1 WT (human) (UniProt Q92547)
eGFP-SLX4 WT (human) = eGFP-SLX4 WT (human) (UniProt Q8IY92)
eGFP-SLX4 T1260A (human) = eGFP-SLX4 T1260A (human) (UniProt Q8IY92)
[1] = biological target: eGFP-TOPBP1 BRCT 1+2 (K155E +K250E) (human) (UniProt Q92547)

| Binder | binding (eGFP-TOPBP1 WT (human)) | binding (eGFP-SLX4 WT (human)) | binding (eGFP-SLX4 T1260A (human)) | binding [1] |
| --- | --- | --- | --- | --- |
| B1 | binds |  |  |  |
| B2 | binds | binds |  |  |
| B3 | binds | binds | binds | binds |
